Measured values published in patent US20230288411A1 (SYSMEX CORPORATION, priority 2020, published 2023).

Experiment: Evaluation of influence of D-biotin on TSH measurement system in ELISA method
Settings: 0, 1, 10 or 100 ng/mL D-biotin added to specimen (TSH calibrator C3); signal at 0 ng/mL taken as 100%; immobilized plate with matching biotin-labeled TSH antibody

For “D-streptavidin: tetrameric polypeptide of 13th to 139th amino acids of SEQ ID NO: 1 composed of D-amino acid residues”, which “effect of D-biotin addition on TSH ELISA signal” value is on record?
Its value is “the effect due to the addition of D-biotin was hardly observed”.

Which “effect of D-biotin addition on TSH ELISA signal” value does the source give for “natural core streptavidin: commercially available tetrameric natural core streptavidin (manufactured by Roche) [reference compound]” here?
Its value is “signal decreased depending on the addition concentration of D-biotin”.
